Experimental data as given in patent US12378320B2, “Methods for treating pancreatitis” (Cold Spring Harbor Laboratory, priority 2018, dated 2025).

B1: P62715 (protein, UniProt P62715 1-309, looked up)
chain: MDDKAFTKELDQWVEQLNECKQLNENQVRTLCEKAKEILTKESNVQEVRCPVTVCGDVHGQFHDLMELFRIGGKSPDTNYLFMGDYVDRGYYSVETVTLLVALKVRYPERITILRGNHESRQITQVYGFYDECLRKYGNANVWKYFTDLFDYLPLTALVDGQIFCLHGGLSPSIDTLDHIRALDRLQEVPHEGPMCDLLWSDPDDRGGWGISPRGAGYTFGQDISETFNHANGLTLVSRAHQLVMEGYNWCHDRNVVTIFSAPNYCYRCGNQAAIMELDDTLKYSFLQFDPAPRRGEPHVTRRTPDYFL
modifications: full-length
B2: P18528 (protein, UniProt P18528 1-98, looked up)
chain: EVQLVESGGGLVKPGGSLKLSCAASGFTFSDYYMYWVRQTPEKRLEWVATISDGGSYTYYPDSVKGRFTISRDNAKNNLYLQMSSLKSEDTAMYYCAR
modifications: full-length
B3: P40142 (protein, UniProt P40142 1-623, looked up)
chain: MEGYHKPDQQKLQALKDTANRLRISSIQATTAAGSGHPTSCCSAAEIMAVLFFHTMRYKALDPRNPHNDRFVLSKGHAAPILYAVWAEAGFLPEAELLNLRKISSDLDGHPVPKQAFTDVATGSLGQGLGAACGMAYTGKYFDKASYRVYCMLGDGEVSEGSVWEAMAFAGIYKLDNLVAIFDINRLGQSDPAPLQHQVDIYQKRCEAFGWHTIIVDGHSVEELCKAFGQAKHQPTAIIAKTFKGRGITGIEDKEAWHGKPLPKNMAEQIIQEIYSQVQSKKKILATPPQEDAPSVDIANIRMPTPPSYKVGDKIATRKAYGLALAKLGHASDRIIALDGDTKNSTFSELFKKEHPDRFIECYIAEQNMVSIAVGCATRDRTVPFCSTFAAFFTRAFDQIRMAAISESNINLCGSHCGVSIGEDGPSQMALEDLAMFRSVPMSTVFYPSDGVATEKAVELAANTKGICFIRTSRPENAIIYSNNEDFQVGQAKVVLKSKDDQVTVIGAGVTLHEALAAAESLKKDKISIRVLDPFTIKPLDRKLILDSARATKGRILTVEDHYYEGGIGEAVSAAVVGEPGVTVTRLAVSQVPRSGKPAELLKMFGIDKDAIVQAVKGLVTKG
modifications: full-length
B4: P98086 (protein, UniProt P98086 1-245, looked up)
chain: METSQGWLVACVLTMTLVWTVAEDVCRAPNGKDGAPGNPGRPGRPGLKGERGEPGAAGIRTGIRGFKGDPGESGPPGKPGNVGLPGPSGPLGDSGPQGLKGVKGNPGNIRDQPRPAFSAIRQNPMTLGNVVIFDKVLTNQESPYQNHTGRFICAVPGFYYFNFQVISKWDLCLFIKSSSGGQPRDSLSFSNTNNKGLFQVLAGGTVLQLRRGDEVWIEKDPAKGRIYQGTEADSIFSGFLIFPSA
modifications: full-length
B5: Q8VED5 (protein, UniProt Q8VED5 1-531, looked up)
chain: MRSSLSRQTFSTKGGFSSNSASGGGGSRMRTSYSSVTMSRGSGGGGGVRSGSSSGGFGSRSLYNLGGKNISVSMACGASSGRALGGFGSGAYVGLGASRQTFGPVCPPGGIQEVTVNQSLLTPLNVEIDPEIQRVRTQEREQIKTLNNKFASFIDKVRFLEQQNKVLETKWALLQEQSQNTGVARSLEPFFENYLSTLRRQLDTKQSERGRLDMELRNVQDNLEDFKNKYEDEINKRTALENEFVLLKKDVDAAYMGRMDLHGKVDSLTQEIDFLQQLFEMELSQVQTNVSDTNVILSMDNNRNLDLDSIIAEVKAQYELIAQKSRAEAESWYQTKYEELQVTAGKHGDSLRDTKNEIAELTRTTQRLQGEVDAAKKQCQQLQTAIAEAEQNGEMALKDAKKKLGDLDTALHQAKEDLARMLREYQDLVSVKLALDMEIATYRKLLESEESRMSGDCPSAISISVTGNSTSVCAGGTAGFGNGLSLGGAGGASKGGFGSSVSYGAAKGGQVSGGTSILRKTTTVKTSSRRY
modifications: full-length
B6: Q9Z1Z2 (protein, UniProt Q9Z1Z2 1-350, looked up)
chain: MAMRQTPLTCSGHTRPVVDLAFSGITPYGYFLISACKDGKPMLRQGDTGDWIGTFLGHKGAVWGATLNKDATKAATAAADFTAKVWDAVSGDELMTLAHKHIVKTVDFTQDSNYLLTGGQDKLLRIYDLNKPEAEPKEISGHTSGIKKALWCSDDKQILSADDKTVRLWDHATMTEVKSLNFNMSVSSMEYIPEGEILVITYGRSIAFHSAVSLEPIKSFEAPATINSASLHPEKEFLVAGGEDFKLYKYDYNSGEELESYKGHFGPIHCVRFSPDGELYASGSEDGTLRLWQTVVGKTYGLWKCVLPEEDSGELAKPKIGFPETAEEELEEIASENSDSIYSSTPEVKA
modifications: full-length
B7: Q61171 (protein, UniProt Q61171 1-198, looked up)
chain: MASGNAQIGKSAPDFTATAVVDGAFKEIKLSDYRGKYVVLFFYPLDFTFVCPTEIIAFSDHAEDFRKLGCEVLGVSVDSQFTHLAWINTPRKEGGLGPLNIPLLADVTKSLSQNYGVLKNDEGIAYRGLFIIDAKGVLRQITVNDLPVGRSVDEALRLVQAFQYTDEHGEVCPAGWKPGSDTIKPNVDDSKEYFSKHN
modifications: full-length
B8: Q9DCV7 (protein, UniProt Q9DCV7 1-457, looked up)
chain: MSIHFSSRSTAYPGRGAQVRLSSGRASFGSRSLYGLGSSRPRVAVRSAYGGPVGAGIREITINQSLLAPLSVDIDPTIQQVRQEEREQIKTLNNKFASFIDKVRFLEQQNKMLETKWALLQEQKSAKSSQLPRIFEAQIAGLRQQLETLQLDGGRLEVELRNMQDVVEDFKNKYEEEINRRTAAENEFVLLKKDVDAAYTNKVELEAKADSLQDEINFLKTLHETELAELQSQISDTSVVLSMDNSRSLDLDGIIADVKAQYEEMANHSRAEAEAWYQTKFETLQAQAGKHGDDLRNTRNEIAEMNRSIQRLQAEIDTLKNQRAKLESSIAEAEEQGELAIKDAHAKQGELEAALQKAKQDVARQLREYQELLNTKLALDIEIATYRKLLEGEESRLSGDGMGPVNISVVNSTGGNGGKLIFGGTMGSNALSFSGGPGALRAYSIKTTSTTRRGTHN
modifications: full-length
B9: Q8BHN3 (protein, UniProt Q8BHN3 1-944, looked up)
chain: MAAIAAVAARRRRSWLSLVLAYLGVCLGITLAVDRSNFKTCDESSFCKRQRSIRPGLSPYRALLDTLQLGPDALTVHLIHEVTKVLLVLELQGLQKNMTRIRIDELEPRRPRYRVPDVLVADPPTARLSVSGRDDNSVELTVAEGPYKIILTAQPFRLDLLEDRSLLLSVNARGLMAFEHQRAPRVPQESKDPAEGNGAQPEATPGDGDKPEETQEKAEKDEPGAWEETFKTHSDSKPYGPTSVGLDFSLPGMEHVYGIPEHADSLRLKVTEGGEPYRLYNLDVFQYELNNPMALYGSVPVLLAHSFHRDLGIFWLNAAETWVDISSNTAGKTLFGKMLDYLQGSGETPQTDIRWMSESGIIDVFLMLGPSVFDVFRQYASLTGTQALPPLFSLGYHQSRWNYRDEADVLEVDQGFDDHNMPCDVIWLDIEHADGKRYFTWDPTRFPQPLNMLEHLASKRRKLVAIVDPHIKVDSGYRVHEELRNHGLYVKTRDGSDYEGWCWPGSASYPDFTNPRMRAWWSNMFSFDNYEGSAPNLYVWNDMNEPSVFNGPEVTMLKDAVHYGGWEHRDIHNIYGLYVHMATADGLIQRSGGIERPFVLSRAFFSGSQRFGAVWTGDNTAEWDHLKISIPMCLSLALVGLSFCGADVGGFFKNPEPELLVRWYQMGAYQPFFRAHAHLDTGRREPWLLASQYQDAIRDALFQRYSLLPFWYTLFYQAHKEGFPVMRPLWVQYPEDMSTFSIEDQFMLGDALLIHPVSDAGAHGVQVYLPGQEEVWYDIQSYQKHHGPQTLYLPVTLSSIPVFQRGGTIVPRWMRVRRSSDCMKDDPITLFVALSPQGTAQGELFLDDGHTFNYQTRHEFLLRRFSFSGSTLVSSSADPKGHLETPIWIERVVIMGAGKPAAVVLQTKGSPESRLSFQHDPETSVLILRKPGVSVASDWSIHLR
modifications: full-length
B10: Q6PE01 (protein, UniProt Q6PE01 1-358, looked up)
chain: MIEQQKRKGPELPLVPVKRPRHELLLGAAGAGPGAGPQQATPGALLQAGPPRCSSLQAPIMLLSGHEGEVYCCKFHPNGSTLASAGFDRLILLWNVYGDCDNYATLKGHSGAVMELHYNTDGSMLFSASTDKTVAVWDSETGERVKRLKGHTSFVNSCYPARRGPQLVCTGSDDGTVKLWDIRKKAAVQTFQNTYQVLAVTFNDTSDQIISGGIDNDIKVWDLRQNKLTYTMRGHADSVTGLSLSSEGSYLLSNAMDNTVRVWDVRPFAPKERCVKIFQGNVHNFEKNLLRCSWSPDGSKIAAGSADRFVYVWDTTSRRVLYKLPGHAGSINEVAFHPDEPIILSASSDKRLYMGEIQ
modifications: full-length

Test system: CA19-9 modified proteins
Experiment: CA19-9 IP/MS (iTRAQ) of organoid conditioned media after Dox treatment
Set-up: species or system mouse
[1] = A217 (genetic negative) organoids conditioned media, after 8 hours of treatment, CA19-9 IP with 5B1, relative to 17 0H NS19
[2] = A217 (genetic negative) organoids conditioned media, after 8 hours of treatment, CA19-9 IP with NS19-9, relative to 17 0H NS19
[3] = A217 (genetic negative) organoids conditioned media, before treatment (0H), CA19-9 IP with NS19-9, relative abundance, reference channel
[4] = A220 (C;R^LSL;F) organoids conditioned media, before treatment (0H), CA19-9 IP with 5B1, relative to 17 0H NS19
[5] = CA19-9 IP/MS relative abundance, A217 (genetic negative) organoid conditioned media, 0H (before treatment), IP with NS19-9, reference channel = 1
[6] = CA19-9 IP/MS relative abundance, A217 (genetic negative) organoid conditioned media, after 8 hours, IP with 5B1
[7] = CA19-9 IP/MS relative abundance, A217 (genetic negative) organoid conditioned media, after 8 hours, IP with NS19-9
[8] = CA19-9 IP/MS relative abundance, A220 (C;R^LSL;F) organoid conditioned media, 0H (before treatment), IP with 5B1

Molecule | 17 8H 5B1 [1] | 17 8H NS19 [2] | 17 0H NS19 [3] | 20 0H 5B1 [4] | 17 0H NS19 [5] | 17 8H 5B1 [6] | 17 8H NS19 [7] | 20 0H 5B1 [8]
B1 | 3.071 | 0.814 | 1 | 2.716 | – | – | – | –
B2 | 0.387 | 0.679 | 1 | 0.369 | – | – | – | –
B3 | 1.672 | 0.524 | 1 | 1.923 | – | – | – | –
B4 | 0.151 | 0.082 | 1 | 0.068 | – | – | – | –
B5 | – | – | – | – | 1 | 0.726 | 1.679 | 1.138
B6 | 2.843 | 0.914 | 1 | 2.352 | – | – | – | –
B7 | 2.046 | 0.513 | 1 | 1.655 | – | – | – | –
B8 | – | – | – | – | 1 | 3.691 | 1.01 | 3.596
B9 | 6.225 | 0.476 | 1 | 4.305 | – | – | – | –
B10 | 3.131 | 0.17 | 1 | 2.697 | – | – | – | –
